Test results taken from doi:10.1101/2022.05.07.491022.
Results are given in words; binding and its absence hold for the method and conditions named. In cells and extracts the contact can be indirect. Some results given as binding are weak or reduced against the parent protein; the word gives no strength.

Protein sequences, listed by entry. Tags and fused reporters are not part of them.
UniProt P30281, whole entry: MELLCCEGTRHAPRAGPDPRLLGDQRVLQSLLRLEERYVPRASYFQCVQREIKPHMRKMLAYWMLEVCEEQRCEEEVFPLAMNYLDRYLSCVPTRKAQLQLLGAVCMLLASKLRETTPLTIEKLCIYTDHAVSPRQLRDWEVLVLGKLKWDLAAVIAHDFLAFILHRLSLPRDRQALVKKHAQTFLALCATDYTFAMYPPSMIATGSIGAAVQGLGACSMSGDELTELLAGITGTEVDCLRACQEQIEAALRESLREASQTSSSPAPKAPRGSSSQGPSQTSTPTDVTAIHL

Key:
Experiment in all cases: co-IP
[1] = biological target: Strep-tagged SARS-CoV-2 Envelope (E) protein (SARS-CoV-2) (UniProt P0DTC4)
[2] = biological target: Strep-tagged SARS-CoV-2 Membrane (M) protein (SARS-CoV-2) (UniProt P0DTC5)
[3] = biological target: HA-tagged cyclin D3 (UniProt P30281)

Substance | binding [1] | binding [2] | binding [3]
HA-tagged cyclin D3 (from UniProt P30281 1-292) | binds | binds | –
Strep-tagged SARS-CoV-2 Membrane (M) protein (from UniProt P0DTC5 1-222) | – | – | binds
Strep-tagged SARS-CoV-2 nsp9 protein (from UniProt P0DTD1 4141-4253) | – | – | no binding
Strep-tagged SARS-CoV-2 Envelope (E) protein (from UniProt P0DTC4 1-75) | – | – | binds
